Data: PubChem BioAssay AID504834 (National Center for Advancing Translational Sciences (NCATS), 2011)
Among all 320,000 compounds or so, about 22,000 (6.9%) were called active. The shares of active, inactive and inconclusive entries below differ from those in the screen. Calls come from the whole dose curve; as a rule, active = well fitted inhibition curve with a large enough effect; inconclusive = small, poorly fitted or top-dose-only effect, or another doubt; inactive = no such curve, though single readings can be large or run the other way. A potency beside an inconclusive call is a rough fit, not a confirmed value.
% is set by controls: 0 for no effect and ±100 for the full control effect; potency is the fitted concentration of half-maximal effect.

Assay: Primary qHTS for delayed death inhibitors of the malarial parasite plastid, 96 hour incubation
Details: P. falciparum luciferase reporter growth; series mostly up to 28.7 µM; activity change, negative = inhibition: at the top concentration
In short: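 Plates of compound plus infected erythrocytes (2% hematocrit, 0.05% parasitemia final) incubate 96 hours, 37 C, 5% CO2. Detection reagent added; reduced luminescence from the parasites' luciferase reporter flags inhibition.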
With `Cc1ccc(NC(=O)c2ccc([N+](=O)[O-])o2)cc1S(=O)(=O)N1CCOCC1` the Potency was active: 9.28 µM. With `CN(Cc1ccon1)C(=O)C1CCN(C2CCN(CCCc3ccccc3)CC2)CC1` the “activity change, negative = inhibition” value was inactive: 42.1%. In the case of `CCOC(=O)Cc1csc(NC(=O)CN2CCCCC2)n1`, the Potency is reported as inconclusive: 18.5 µM [inhibitor, single point]. For `CN(CC1CCOCC1)C(=O)CC1C(=O)NCCN1CC1CCCCC1` (stereo not given), the Potency was inconclusive: 4.15 µM [inhibitor, single point]. With `COc1ccccc1NS(=O)(=O)c1cc(NC(=O)CCc2nc3ccccc3c(=O)[nH]2)ccc1C` the Potency was active: 10.4 µM. With `COc1cc(C2C(C#N)=C(N)Oc3c2c(-c2ccccc2)nn3-c2ccccc2)cc(OC)c1OC` (stereo not given) the Potency was inconclusive: 18.5 µM [inhibitor, single point]. For `CCOc1ccc(NC(=O)CN(C)C(=O)c2cccc(S(=O)(=O)N3CCCC3)c2)cc1OCC`, the Potency was inconclusive: 13.1 µM [inhibitor, single point]. In the case of `COc1ccccc1N1CCN(CCCn2c(=S)[nH]c3ccccc3c2=O)CC1`, the “activity change, negative = inhibition” value is reported as inactive: 20.8%. For `C=CCn1cc(CN2CCC(C(=O)Nc3cccc(-c4cccc(F)c4)c3)CC2)c(C)n1`, the Potency was inconclusive: 9.28 µM [inhibitor, single point]. For `Cc1cccc(OCCCn2c(CCNC(=O)C(C)C)nc3ccccc32)c1`, the “activity change, negative = inhibition” value was inactive: 16.5%. With `Cc1[nH]c2ccccc2c1C(=O)COC(=O)c1nccnc1N` the Potency was inconclusive: 13.1 µM [inhibitor, single point]. In the case of `Cc1cc(-n2nc3ccc(Cl)cc3n2)c(O)c(C(C)(C)C)c1`, the Potency is reported as inconclusive: 12 µM [inhibitor, partial curve, poor fit]. For `CCCc1cc(=O)oc2c3c(cc(OCC(=O)NCC4CCC(C(=O)O)CC4)c12)OC(C)(C)CC3` (stereo not given), the Potency was active: 1.31 µM. With `CC(=O)c1ccc(OCC(=O)Nc2c(C)nn(-c3ccccc3)c2C)cc1` the Potency was inconclusive: 10.4 µM [inhibitor, single point]. In the case of `Clc1ccc(-c2nnc(-c3ccco3)nc2N2CCCCC2)cc1`, the Potency is reported as inconclusive: 11.7 µM [inhibitor, single point]. With `O=S(=O)(NCCN1CCOCC1)c1cccc(C(F)(F)F)c1` the “activity change, negative = inhibition” value was inactive: -19.5%. With `COC(=O)Nc1ccc2c(c1)N(C(=O)CCN1CCOCC1)c1ccccc1S2` the Potency was inconclusive: 13.1 µM [inhibitor, partial curve]. With `CCC(CO)Oc1cc(NC(=O)c2ccc(C)cc2)c2ncn(C(C)C)c2c1` (stereo not given) the “activity change, negative = inhibition” value was inactive: -6.57%. In the case of `COCCN(CCOC)c1nc(-c2ccc(Cl)cc2)nc2ccccc12`, the Potency is reported as inconclusive: 18.5 µM [inhibitor, single point]. For `NC(=O)CC(NC(=O)Cc1cccc2ccccc12)c1ccc(N2CCc3ccccc3C2)c([N+](=O)[O-])c1` (stereo not given), the Potency was inconclusive: 9.28 µM [inhibitor, single point]. For `COc1ccc(C2CC(=O)c3cnc(N4CCc5ccccc54)nc3C2)cc1OC` (stereo not given), the Potency was inconclusive: 9.28 µM [inhibitor, partial curve, poor fit]. In the case of `Cn1c(SCC(=O)Nc2nncs2)nnc1C1CC1`, the Potency is reported as inconclusive: 18.5 µM [inhibitor, single point]. In the case of `COc1ccc(N2C(=O)N(Cc3cccc(F)c3)c3ccccc3S2(=O)=O)cc1`, the Potency is reported as inconclusive: 14.7 µM [inhibitor, single point]. In the case of `O=C(Nc1nc(-c2ccccn2)cs1)c1ccc2c(c1)OCCO2`, the Potency is reported as inconclusive: 13.1 µM [inhibitor, single point]. In the case of `CC(C)CCN1CCN(Cc2cccn2-c2nccs2)CC1CCO` (stereo not given), the Potency is reported as inconclusive: 18.5 µM [inhibitor, single point]. With `Cc1ccc(Nc2nc(CSc3n[nH]c(N)n3)cs2)cc1` the “activity change, negative = inhibition” value was inactive: 30%. With `Cc1cc(C)n(C(=O)N(c2ccccc2)c2ccccc2)n1` the “activity change, negative = inhibition” value was inactive: 3.76%. In the case of `CC(C)(C)c1cc(NC(=O)COC(=O)c2ccc(O)cc2O)n(-c2ccccc2)n1`, the Potency is reported as inconclusive: 14.7 µM [inhibitor, partial curve]. In the case of `NC(=S)NN=C(c1ccccc1)c1ccccc1`, the Potency is reported as inconclusive: 0.415 µM [inhibitor, partial curve, poor fit]. For `CCOC(=O)c1ccc(N2C(=O)C(O)=C(C(C)=O)C2c2ccccn2)cc1` (stereo not given), the Potency was inconclusive: 11.7 µM [inhibitor, single point]. In the case of `COc1ccc(C(=O)Nc2nc3c(s2)Cc2cc(OC)ccc2-3)cc1`, the Potency is reported as inconclusive: 18.5 µM [inhibitor, single point]. With `CNC(=O)CSc1cn(CC(=O)N(C(C)C)C(C)C)c2ccccc12` the Potency was active: 10.4 µM. In the case of `Cc1ccc(/C=C/C(=O)O)cc1S(=O)(=O)NCCO`, the “activity change, negative = inhibition” value is reported as inactive: 14.6%. With `Cc1c(CN2CCC(CO)(Cc3cccc(C(F)(F)F)c3)CC2)c2ccccc2n1C` the Potency was inconclusive: 10.4 µM [inhibitor, partial curve, poor fit]. For `CCCNc1nc2c(c(=O)n(C)c(=O)n2C)n1CCCc1ccccc1`, the Potency was active: 1.47 µM. For `O[C@@H]1CO[C@H]2[C@@H]1OC[C@@H]2O`, the “activity change, negative = inhibition” value was inactive: -8.21%. For `CCCCC(=O)Nc1ccc2oc(-c3cccnc3)nc2c1`, the “activity change, negative = inhibition” value was inactive: 75.5%. In the case of `N/C(=N\OC(=O)CCC1CCCCC1)c1ccc([N+](=O)[O-])cc1`, the “activity change, negative = inhibition” value is reported as inactive: 32%. For `COc1cc(-c2noc(C)c2C#CCO)cc(OC)c1OC`, the “activity change, negative = inhibition” value was inactive: 3.79%. For `CCOC(=O)N1CCN(C(=O)c2ccc(CS(=O)Cc3ccc(C)cc3)o2)CC1` (stereo not given), the Potency was inconclusive: 18.5 µM [inhibitor, single point]. With `CCc1nc(NCc2ccccn2)c2oc3ccccc3c2n1` the Potency was inconclusive: 8.28 µM [inhibitor, partial curve, poor fit]. With `CCNC(=O)CC1SC(=Nc2ccccc2C)N(C)C1=O` (stereo not given) the Potency was inconclusive: 10.4 µM [inhibitor, single point]. With `CN(C)S(=O)(=O)c1ccc(C(=O)NCc2ccccn2)cc1` the Potency was inconclusive: 10.4 µM [inhibitor, single point]. For `Cc1ncc(CN2CCN(CCc3ccccc3)C(CCO)C2)s1` (stereo not given), the Potency was inconclusive: 0.0294 µM [inhibitor, partial curve, poor fit]. In the case of `COc1cc(OC)c(CN2CCCN(C)CC2)cc1Br`, the Potency is reported as inconclusive: 4.15 µM [inhibitor, single point]. For `Cc1cc(C)cc(NC(=O)C/C(N)=N/O)c1`, the “activity change, negative = inhibition” value was inactive: -12.9%. In the case of `Cc1ccc(S(=O)(=O)N2CCN(CC(=O)Nc3ccc(N4CCOCC4)cc3)CC2)cc1C`, the “activity change, negative = inhibition” value is reported as inactive: -2.53%. For `O=[N+]([O-])c1cn(Cc2ccc(Cl)cc2)cn1`, the Potency was inconclusive: 2.94 µM [inhibitor, single point]. In the case of `COc1cccc2cc(C(=O)NCc3ccccc3Cl)c(=O)oc12`, the Potency is reported as inconclusive: 13.1 µM [inhibitor, partial curve, poor fit]. In the case of `COC(=O)C1CCN(S(=O)(=O)c2ccc(Br)s2)CC1`, the Potency is reported as inconclusive: 18.5 µM [inhibitor, single point]. In the case of `O=C(COC(=O)CCC(=O)c1ccc(Cl)cc1)NCC1CCCO1` (stereo not given), the Potency is reported as inconclusive: 0.0657 µM [inhibitor, full curve, poor fit]. In the case of `COc1cccc(C2C3=C(N=c4s/c(=C\c5cccc(O)c5)c(=O)n42)c2ccccc2CC3)c1OC` (stereo not given), the Potency is reported as inconclusive: 2.62 µM [inhibitor, single point]. In the case of `Nc1ccc(NC(=O)c2cccs2)c(Cl)c1`, the Potency is reported as inconclusive: 10.4 µM [inhibitor, single point]. For `Cc1ccc(S(=O)(=O)N2CCN(C(=O)COC(=O)C3CCC3)CC2)c(C)c1`, the “activity change, negative = inhibition” value was inactive: 22.8%. With `CCCc1cc(=O)oc2cc(OCc3cc(OC)c(OC)c(OC)c3)c(Cl)cc12` the Potency was inconclusive: 0.0033 µM [inhibitor, full curve, poor fit]. For `Cc1ccc(NC(=O)c2cc(S(=O)(=O)N3CCCCC3)c[nH]2)cc1F`, the Potency was inconclusive: 18.5 µM [inhibitor, single point]. For `CCCCNc1c(-c2ccc(SC(C)CC)c(OC)c2)nc2ccc(C)cn12` (stereo not given), the Potency was inconclusive: 8.28 µM [inhibitor, partial curve, poor fit]. For `CC(=O)Nc1ccc2nc(NC(=O)COc3cccc(C)c3)sc2c1`, the Potency was inconclusive: 18.5 µM [inhibitor, single point]. With `CC(CCc1ccccc1)N1CCN(Cc2ccccc2)CC1` (stereo not given) the Potency was active: 11.7 µM. For `CN(C)C(=O)Oc1noc2cc(Cl)ccc12`, the Potency was active: 3.29 µM. In the case of `COc1ccccc1NC(=O)c1cc2ccccc2o1`, the Potency is reported as active: 5.22 µM. With `CCN(c1ccc(NC(=O)COC(=O)c2ccc([N+](=O)[O-])o2)cc1)C(C)C` the Potency was inconclusive: 16.5 µM [inhibitor, single point]. For `CCOc1ccccc1NC(=O)CSC1=C(C#N)C(c2ccco2)C(C(=O)Nc2nc3ccccc3s2)=C(C)N1` (stereo not given), the Potency was inconclusive: 14.7 µM [inhibitor, single point]. In the case of `CC(C)N(CCNC(=O)C1CCN(S(=O)(=O)N2CCOCC2)CC1)Cc1ccccc1`, the Potency is reported as inconclusive: 18.5 µM [inhibitor, single point]. In the case of `Cc1nc2nc(SCC(=O)NCCCN3CCCC(C)C3)nn2c(C)c1Cc1ccccc1Cl` (stereo not given), the “activity change, negative = inhibition” value is reported as inactive: 31.2%. In the case of `CC(=O)Nc1ccc(S(=O)(=O)N(Cc2cc3ccc(C)cc3[nH]c2=O)CC2CCCO2)cc1` (stereo not given), the Potency is reported as inconclusive: 18.5 µM [inhibitor, single point]. For `Cc1ccc(-n2nnc3ccccc3c2=O)cc1C`, the “activity change, negative = inhibition” value was inactive: 23.9%. With `COc1ccc(C)cc1S(=O)(=O)Nc1cc2c3c(c1)CCC(=O)N3CCC2` the Potency was inconclusive: 11.7 µM [inhibitor, single point]. With `Cc1cccc(CNC(=O)C2CCC(=O)N(Cc3ccccc3F)C2)n1` (stereo not given) the Potency was inconclusive: 0.0329 µM [inhibitor, full curve, poor fit]. With `NC(=O)c1ccc(Nc2ccc3c(c2)CCC3)c([N+](=O)[O-])c1` the “activity change, negative = inhibition” value was inactive: -3.89%.
